Source: patent publication US20130273053A1
These are yes or no findings as the source states them, for the method shown. Some entries that bind do so weakly or less than the wild type.

By UniProt entry, the sequences of proteins in these tests, tags left out. Where a name states a change or a piece, a line headed by the entry shows the natural chain unless it says otherwise.
UniProt P48740: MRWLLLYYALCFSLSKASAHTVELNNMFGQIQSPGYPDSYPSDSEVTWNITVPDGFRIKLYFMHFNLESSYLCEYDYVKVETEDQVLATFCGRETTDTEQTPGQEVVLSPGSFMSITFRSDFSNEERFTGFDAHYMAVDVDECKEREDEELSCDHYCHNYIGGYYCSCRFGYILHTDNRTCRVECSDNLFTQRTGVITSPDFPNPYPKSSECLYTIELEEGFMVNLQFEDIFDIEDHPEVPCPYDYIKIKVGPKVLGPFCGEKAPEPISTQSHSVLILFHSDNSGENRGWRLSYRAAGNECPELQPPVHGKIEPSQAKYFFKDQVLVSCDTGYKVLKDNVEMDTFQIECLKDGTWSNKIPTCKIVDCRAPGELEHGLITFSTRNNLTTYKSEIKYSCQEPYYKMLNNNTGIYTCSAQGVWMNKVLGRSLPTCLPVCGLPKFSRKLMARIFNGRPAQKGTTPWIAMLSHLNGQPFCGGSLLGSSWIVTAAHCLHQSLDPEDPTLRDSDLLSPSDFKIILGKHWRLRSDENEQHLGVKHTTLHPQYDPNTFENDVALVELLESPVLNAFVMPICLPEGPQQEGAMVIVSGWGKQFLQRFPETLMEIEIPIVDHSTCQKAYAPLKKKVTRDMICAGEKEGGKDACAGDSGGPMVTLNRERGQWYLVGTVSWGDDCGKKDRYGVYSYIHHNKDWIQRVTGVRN

Key:
human MASP-3 (human) [1] = test: saturation binding by flow cytometry: DTLacO cells expressing the antibody, stained with increasing concentrations of fluorescent-labelled soluble MASP-3 antigen
human MASP-3 (human) [2] = test: FACS, DTLacO cells stained with MASP-3 antigen
human MASP-3 (human) [3] = test: flow cytometry (FACS) of DTLacO cells displaying clone M3J5, stained with MASP-3 antigen; filled curve is the IgG1-stained negative control
human MASP-3 (human) [4] = test: DTLacO screens
human MASP-3 (human) [5] = test: flow cytometry (FACS) of DTLacO cells displaying clone M3M1, stained with MASP-3 antigen; filled curve is the IgG1-stained negative control
human MASP-1 (human) = human MASP-1 (human) (UniProt P48740); test: DTLacO screens

B1: MASP-3 specific clone M3J5 (antibody, IgM, V domains shown)
VH: AVTLDESGGGLQTPGGGLSLVCKASGFTFSSYAMGWMRQAPGKGLEYVAGIRSDGSFTLYATAVKGRATISRDNGQSTVRLQLNNLRAEDTATYFCTRSGNVGDIDAWGHGTEVIVSS
VL: ALTQPASVSANPGETVKITCSGGYSGYAGSYYYGWYQQKAPGSAPVTLIYYNNKRPSDIPSRFSGSLSGSTNTLTITGVRADDEAVYFCGSADNSGAAFGAGTTLTVL
binding (human MASP-3 (human) [1]): binds
binding (human MASP-3 (human) [2]): binds
binding (human MASP-3 (human) [3]): binds
binding (human MASP-3 (human) [4]): binds

B2: MASP-3 specific clone M3M1 (antibody, V domains shown)
VH: AVTLDESGGGLQTPGGGLSLVCKASGFDFSSYQMNWIRQAPGKGLEFVAAINRFGNSTGHGAAVKGRVTISRDDGQSTVRLQLSNLRAEDTATYYCAKGVYGYCGSYSCCGVDTIDAWGHGTEVIVSS
VL: ALTQPASVSANPGETVKITCSGGGSYAGSYYYGWYQQKAPGSAPVTLIYYNNKRPSDIPSRFSGSLSGSTNTLTITGVRADDEAVYFCGSADNSGAAFGAGTTLTVL
binding (human MASP-3 (human) [2]): binds
binding (human MASP-3 (human) [5]): binds
binding (human MASP-3 (human) [4]): binds

B3: clone D14 (MASP-1/MASP-3 dual binding clone) (antibody, human IgG1, V domains shown)
VH: AVTLDESGGGLQTPGGALSLVCKASGFTFSSYAMHWVRQAPGKGLEWVAGIYKSGAGTNYAPAVKGRATISRDNGQSTVRLQLNNLRAEDTGTYYCAKTTGSGCSSGYRAEYIDAWGHGTEVIVSS
VL: ALTQPASVSANPGETVKITCSGGGSYAGSYYYGWYQQKAPGSAPVTLIYYNNKRPSDIPSRFSGSLSGSTNTLTITGVRADDEAVYFCGSADNSGAAFGAGTTLTVL
binding (human MASP-1 (human)): binds
binding (human MASP-3 (human) [4]): binds

B4: clone 1E10 (MASP-1/MASP-3 dual binding clone) (antibody, human IgG1, V domains shown)
VH: AVTLDESGGGLQTPGGALSLVCKASGFTFSSYDMVWVRQAPGKGLEFVAGISRNDGRYTEYGSAVKGRATISRDNGQSTVRLQLNNLRAEDTATYYCARDAGGSAYWFDAGQIDAWGHGTEVIVSS
VL: ALTQPASVSANPGETVKITCSGGGSYAGSYYYGWYQQKAPGSAPVTLIYYNNKRPSDIPSRFSGSLSGSTNTLTITGVRADDEAVYFCGSADNSGAAFGAGTTLTVL
binding (human MASP-1 (human)): binds
binding (human MASP-3 (human) [4]): binds
